The name of at least one read-out is uncertain.
Test system: isolierten Präparaten des rechten Vorhofs von Kaninchen
Assay: Antiarrhythmic effect on isolated right atrium preparations (microelectrodes: AP duration, refractory period R, e/R)
Conditions: column head stands in the 13th table (not shown); meaning and unit inferred
From the text: Die antiarrhythmische Wirkung der erfindungsgemäßen Verbindungen wurde in zwei Versuchsserien untersucht, und zwar an isolierten Präparaten des rechten Vorhofs von Kaninchen und mit Hilfe des Calciumchlorid-Arrhythmie-Modells an Ratten. In den Versuchen an den isolierten Präparaten des rechten Vorhofs wurden mit Hilfe von Mikroelektroden die Dauer des AP sowie der Refraktärzeit (R) und die maximale Hemmung (e) und der Parameter (e/R) untersucht, durch den die Anfälligkeit des Myokards gegenüber der Entstehung von Arrhythmien gekennzeichnet wird. In den Versuchen an Ratten wurden diesen Calciumchlorid in einer Dosierung von 250 mg/kg injiziert. Registriert wurden das Vorliegen von Kammerflimmern und die Lebensdauer der Tiere. Sämtliche erfindungsgemäßen Verbindungen üben eine mäßige antiarrhythmische Wirkung aus. Sie steigern die Refraktärzeit des Muskels und des AP um 35 bis 145 % und verringern gleichzeitig die Anfälligkeit des Myokards, ausgedrückt durch den Parameter e/R um 10 bis 80 % (s. Tabelle 4). In bezug auf diese Wirkung waren die Salze der bicyclischen Basen wirksamer als Amyridin. Bezüglich des Vermögens, die Tiere vor Kammerflimmern und vor dem Tod nach Verabreichung von 250 mg/kg Calciumchlorid zu schützen, waren diese Verbindungen ebenfalls am stärksten wirksam. […]

Which “Tabelle 4, Spalte 3: Parameter e/R (Verringerung)” value does the source give for CNc1c(C)c(C)nc2c1CCC2 [Verbindung 19, 2,3-Dimethy)-4-methy)amino-6,7-dihydro-5H-1-pyrindinhydrat] here?
Its value is 20%.

From patent EP0326134A1, “4-Amino-2,3-disubstituted-6,7-dihydro-5H-1-pyridine derivatives, process for their preparation and medicaments containing them” (NAUCHNO-ISSLEDOVATELSKY INSTITUT TEKHNOLOGII I BEZOPASNOSTI …, priority 1988, dated 1989)
